# Experimental data as given in PubChem BioAssay AID2685 (National Center for Advancing Translational Sciences (NCATS), 2010).
# The other results are listed elsewhere or left out. The main result of the screen is listed elsewhere. These columns were measured beside it and carry no call. Most of these compounds were active or inconclusive in the main read-out, so they are no random draw. Words in brackets tell the shape of the fitted curve; partial curves, single points and poor fits give uncertain potencies.
# Assay: qHTS Assay for Lipid Storage Modulators in Drosophila S3 Cells;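 for cell number change: cells counted by Cell Tracker Red CMTPX staining in the red channel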
# Details: BODIPY lipid droplet fluorescence, 18-24 h; for cell number change: measured here: cell count max response, cells fed with added oleic acid
# Summary of the method: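 Drosophila S3 cells loaded with oleic acid (400 uM, as added) and compounds at several concentrations; lipid droplets imaged by 488-nm laser-scanning cytometry, 500–530 nm intensity and object ratio to cell channel. Percent activity normalized to 20 uM Triacsin C.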
# [1] = measured here: cell number channel AC50, cells fed with added oleic acid
# [2] = measured here: lipid fluorescence (Fed channel) AC50, cells fed with added oleic acid
Structure (SMILES),cell number change [%],AC50 [1],AC50 [2]
O=[N+]([O-])c1ccc(N2N=C(c3ccccc3)CC2c2ccccc2O)cc1 (stereo not drawn),85.1,"29.1 µM [rising, single point]",
CC(C)CCNC(=O)c1cccc(C(=O)NCCC(C)C)c1,,"3.66 µM [rising, single point]","6.51 µM [rising, partial curve]"
CC1CC(C)CN(CCCOc2ccccc2[N+](=O)[O-])C1 (stereo not drawn),16.1,,"0.92 µM [rising, full curve, poor fit]"
COc1ccc(-c2nc(SC(C)C(=O)NCC3CCCO3)n[nH]2)cc1 (stereo not drawn),55.9,"16.4 µM [rising, single point]",
CCNC(=S)N(CCO)Cc1cc2cc3c(cc2[nH]c1=O)OCO3,-5.47,,"29.1 µM [falling, single point]"
COC(=O)c1ccccc1NC(=O)c1noc2c1CCC2,52.4,"4.11 µM [rising, full curve]","10.3 µM [rising, partial curve]"
C/C(=N\NC(=O)C1CC1(c1ccccc1)c1ccccc1)c1cccc([N+](=O)[O-])c1 (stereo not drawn),0.41,,
C#CCOCCOCCOCCNc1nc(N2CCN(C(=O)CCCCCCCCCCNC(=O)Cn3cc(C[C@@H](C)O)nn3)CC2)nc(N2CCN(C(=O)CCCCCCCCCCNC(=O)[C@@H]([C@H](C)CC)n3cc(CCCCCN)nn3)CC2)n1,-86.1,"29.1 µM [falling, single point]","0.164 µM [falling, full curve, poor fit]"
CCOc1cc(CNCc2ccncc2)cc(Cl)c1OC,22.2,,"29.1 µM [rising, single point]"
NS(=O)(=O)c1ccc(CCNC(=O)C2CCN(c3ncnc4c3nc3n4CCCCC3)CC2)cc1,42.2,,"14.6 µM [rising, partial curve]"
N#CCCCn1c(O)c(N=NC(=O)C(O)c2ccccc2)c2ccccc21 (stereo not drawn),21.9,"2.06 µM [rising, full curve, poor fit]","18.4 µM [rising, single point]"
COc1cc(OC)c(-c2nc3c[n+](CC(=O)c4ccccc4)ccc3n2C)cc1OC,-90.2,"32.6 µM [falling, single point]",
Cc1nc(SCc2ccccc2)[nH]c(=O)c1CC(=O)OCC(C)C,5.56,,"29.1 µM [falling, partial curve, poor fit]"
Cc1ccc(C(C)C)c(OCc2ccc(C(=O)N/N=C/c3cccc(O)c3O)cc2)c1,-70.4,"16.4 µM [falling, partial curve]","6.51 µM [falling, full curve]"
COc1ccccc1C(=O)NC1CCN(C(=O)Nc2ccc(F)cc2)CC1,50.5,"0.58 µM [rising, partial curve, poor fit]",
CCOc1ccc(NC(=S)NC(=O)c2cccnc2)c([N+](=O)[O-])c1,-17.6,,"5.17 µM [falling, partial curve]"
CCn1ncc(/C=C/C(=O)Nc2c(C)nn(Cc3ccc(Cl)cc3Cl)c2C)c1C,73.2,"20.6 µM [rising, single point]","20.6 µM [rising, partial curve]"

# In a second layout: entries from further up.
Structure (SMILES)	cell number change [%]	AC50 [1]	AC50 [2]
NS(=O)(=O)c1ccc(CCNC(=O)C2CCN(c3ncnc4c3nc3n4CCCCC3)CC2)cc1	42.2		14.6 µM [rising, partial curve]
N#CCCCn1c(O)c(N=NC(=O)C(O)c2ccccc2)c2ccccc21 (stereo not drawn)	21.9	2.06 µM [rising, full curve, poor fit]	18.4 µM [rising, single point]

# Further results:

Structure (SMILES),cell number change [%],AC50 [1],AC50 [2]
COc1ccc(CNC(=O)[C@@H](C)NC(=O)[C@@H]2Cc3ccccc3CN2)cc1,3.56,,"0.58 µM [rising, single point]"
COc1ccc(NC(=O)CSc2nnc(Cn3nnc4ccccc43)n2C)cc1,18,,
CC(C(=O)N(C)C1CCS(=O)(=O)C1)N1C(=O)/C(=C/c2ccc(F)cc2)SC1=S (stereo not drawn),-7.31,,"29.1 µM [falling, single point]"
COCCCNC(=S)NNC(=O)c1cc(-c2ccncc2)nc2ccccc12,-5.94,,"29.1 µM [falling, single point]"
CC(=O)N1CCN(c2ccc(Oc3nnnn3-c3ccccc3)cc2)CC1,-6.47,,"0.0058 µM [rising, full curve, poor fit]"
O=C(OCC(=O)N1CCCC1)c1cncc(Br)c1,-25.9,,"0.651 µM [falling, partial curve, poor fit]"
CCN(CC)CCCOC(=O)C(c1ccccc1)c1ccccc1,-10,"6.51 µM [rising, single point]","6.51 µM [rising, single point]"
CC(C)N(CC#CCC1(O)c2ccccc2-c2ccccc21)CCO,,,"2.91 µM [falling, single point]"
Cc1ccccc1C(O)c1cccnc1 (stereo not drawn),-13,,"0.0731 µM [rising, full curve, poor fit]"
CC(C)CN(C(=O)Cn1c(Cl)nc2c1c(=O)n(C)c(=O)n2C)C1CCS(=O)(=O)C1 (stereo not drawn),,"6.51 µM [falling, single point]","6.51 µM [falling, single point]"
CC[n+]1ccc(C(=O)NCc2ccccc2)cc1,78.6,,
COCC(=O)N1CCC(n2nnc3cc(F)ccc32)CC1,4.11,,"0.13 µM [rising, full curve, poor fit]"
CCC(C)NC(=O)CSc1ncnc2sccc12 (stereo not drawn),-39.6,"7.31 µM [falling, partial curve, poor fit]","1.64 µM [falling, partial curve, poor fit]"
CCOC(=O)C1C(=O)NC(N2CCN(CC)CC2)=NC1c1ccccc1 (stereo not drawn),6.31,,"23.1 µM [falling, partial curve]"
CCn1c(C)cc2c(c1=O)C(c1ccccc1Br)C(C#N)=C(N)O2 (stereo not drawn),-17.3,"0.461 µM [falling, full curve, poor fit]","2.91 µM [rising, single point]"
CN(C)CCCNS(=O)(=O)c1cc(Cl)ccc1Cl,-26.5,,"5.17 µM [falling, partial curve]"
CC(=O)N/C(=C/c1ccc(OS(=O)(=O)c2ccc(C)cc2)cc1)C(=O)NCCCO,-22.1,"2.06 µM [falling, full curve, poor fit]","1.3 µM [falling, full curve, poor fit]"
